In the supplement of paper PMC8728848:
Some of the results follow.

How the values were obtained:
Test in all cases: glycan array binding signal (z-score within array); higher = stronger binding
Conditions in all cases: glycan notation: IUPAC condensed, linker removed
[1] = biological target: Neu5Ac(a2-3)Gal(b1-4)GlcNAc(b1-6)GalNAc
Outline: (§1)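 Arrays were curated from the Consortium for Functional Glycomics database, 3228 in total, and kept only where the protein sequence was available. Binding is expressed as a within-array Z-score. This score was averaged across arrays of the same protein sequence at different concentrations or buffers and across linkers, and negative values can be read as non-binding.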

[2] = biological target: Neu5Ac(a2-3)Gal(b1-4)GlcNAc(b1-6)[Gal(b1-3)]GalNAc
Outline: as §1

[3] = biological target: Neu5Ac(a2-3)Gal(b1-4)GlcNAc(b1-6)[Neu5Ac(a2-3)Gal(b1-3)]GalNAc
Outline: as §1

[4] = biological target: Neu5Ac(a2-3)Gal(b1-4)GlcNAc6S
Outline: as §1

[5] = biological target: Neu5Ac(a2-3)Gal(b1-4)[Fuc(a1-3)]GlcNAc
Outline: as §1

[6] = biological target: Neu5Ac(a2-3)Gal(b1-4)[Fuc(a1-3)]GlcNAc(b1-2)Man
Outline: as §1

[7] = biological target: Neu5Ac(a2-3)Gal(b1-4)[Fuc(a1-3)]GlcNAc(b1-3)Gal
Outline: as §1

[8] = biological target: Neu5Ac(a2-3)Gal(b1-4)[Fuc(a1-3)]GlcNAc(b1-3)Gal(b1-4)GlcNAc
Outline: as §1

[9] = biological target: Neu5Ac(a2-3)Gal(b1-4)[Fuc(a1-3)]GlcNAc(b1-3)Gal(b1-4)[Fuc(a1-3)]GlcNAc(b1-3)Gal(b1-4)[Fuc(a1-3)]GlcNAc
Outline: as §1

[10] = biological target: Neu5Ac(a2-3)Gal(b1-4)[Fuc(a1-3)]GlcNAc(b1-3)GalNAc
Outline: as §1

[11] = biological target: Neu5Ac(a2-3)Gal(b1-4)[Fuc(a1-3)]GlcNAc(b1-6)[Gal(b1-3)]GalNAc
Outline: as §1

[12] = biological target: Neu5Ac(a2-3)Gal(b1-4)[Fuc(a1-3)]GlcNAc(b1-6)[Neu5Ac(a2-3)Gal(b1-3)]GalNAc
Outline: as §1

[13] = biological target: Neu5Ac(a2-3)Gal(b1-4)[Fuc(a1-3)]GlcNAc6S
Outline: as §1

[14] = biological target: Neu5Ac(a2-3)Gal6S(b1-4)GlcNAc
Outline: as §1

[15] = biological target: Neu5Ac(a2-3)Gal6S(b1-4)[Fuc(a1-3)]GlcNAc
Outline: as §1

[16] = biological target: Neu5Ac(a2-3)GalNAc
Outline: as §1

[17] = biological target: Neu5Ac(a2-3)GalNAc(b1-4)GlcNAc
Outline: as §1

[18] = biological target: Neu5Ac(a2-3)[GalNAc(b1-4)]Gal(b1-4)Glc
Outline: as §1

[19] = biological target: Neu5Ac(a2-3)[GalNAc(b1-4)]Gal(b1-4)GlcNAc
Outline: as §1

[20] = biological target: Neu5Ac(a2-3)[GalNAc(b1-4)]Gal(b1-4)GlcNAc(b1-3)GalNAc
Outline: as §1

[21] = biological target: Neu5Ac(a2-3)[Neu5Ac(a2-6)]GalNAc
Outline: as §1

[22] = biological target: Neu5Ac(a2-6)Gal
Outline: as §1

[23] = biological target: Neu5Ac(a2-6)Gal(b1-3)GlcNAc(b1-3)[Gal(b1-4)GlcNAc(b1-6)]Gal(b1-4)Glc
Outline: as §1

[24] = biological target: Neu5Ac(a2-6)Gal(b1-4)Glc
Outline: as §1

[25] = biological target: Neu5Ac(a2-6)Gal(b1-4)GlcNAc
Outline: as §1

[26] = biological target: Neu5Ac(a2-6)Gal(b1-4)GlcNAc(b1-2)Man
Outline: as §1

[27] = biological target: Neu5Ac(a2-6)Gal(b1-4)GlcNAc(b1-2)Man(a1-3)Man(b1-4)GlcNAc(b1-4)GlcNAc
Outline: as §1

[28] = biological target: Neu5Ac(a2-6)Gal(b1-4)GlcNAc(b1-2)Man(a1-3)[Gal(b1-4)GlcNAc(b1-2)Man(a1-6)]Man(b1-4)GlcNAc(b1-4)GlcNAc
Outline: as §1

[29] = biological target: Neu5Ac(a2-6)Gal(b1-4)GlcNAc(b1-2)Man(a1-3)[GlcNAc(b1-2)Man(a1-6)]Man(b1-4)GlcNAc(b1-4)GlcNAc
Outline: as §1

[30] = biological target: Neu5Ac(a2-6)Gal(b1-4)GlcNAc(b1-2)Man(a1-3)[GlcNAc(b1-4)][Neu5Ac(a2-6)Gal(b1-4)GlcNAc(b1-2)Man(a1-6)]Man(b1-4)GlcNAc(b1-4)GlcNAc
Outline: as §1

[31] = biological target: Neu5Ac(a2-6)Gal(b1-4)GlcNAc(b1-2)Man(a1-3)[Man(a1-6)]Man(b1-4)GlcNAc(b1-4)GlcNAc
Outline: as §1

[32] = biological target: Neu5Ac(a2-6)Gal(b1-4)GlcNAc(b1-2)Man(a1-3)[Neu5Ac(a2-3)Gal(b1-4)GlcNAc(b1-2)Man(a1-6)]Man(b1-4)GlcNAc(b1-4)GlcNAc
Outline: as §1

[33] = biological target: Neu5Ac(a2-6)Gal(b1-4)GlcNAc(b1-2)Man(a1-3)[Neu5Ac(a2-6)Gal(b1-4)GlcNAc(b1-2)Man(a1-6)]Man(b1-4)GlcNAc(b1-4)GlcNAc
Outline: as §1

[34] = biological target: Neu5Ac(a2-6)Gal(b1-4)GlcNAc(b1-2)Man(a1-3)[Neu5Ac(a2-6)Gal(b1-4)GlcNAc(b1-2)Man(a1-6)]Man(b1-4)GlcNAc(b1-4)[Fuc(a1-6)]GlcNAc
Outline: as §1

[35] = biological target: Neu5Ac(a2-6)Gal(b1-4)GlcNAc(b1-2)Man(a1-6)Man(b1-4)GlcNAc(b1-4)GlcNAc
Outline: as §1

[36] = biological target: Neu5Ac(a2-6)Gal(b1-4)GlcNAc(b1-2)Man(a1-6)[Gal(b1-4)GlcNAc(b1-2)Man(a1-3)]Man(b1-4)GlcNAc(b1-4)GlcNAc
Outline: as §1

[37] = biological target: Neu5Ac(a2-6)Gal(b1-4)GlcNAc(b1-2)Man(a1-6)[GlcNAc(b1-2)Man(a1-3)]Man(b1-4)GlcNAc(b1-4)GlcNAc
Outline: as §1

[38] = biological target: Neu5Ac(a2-6)Gal(b1-4)GlcNAc(b1-2)Man(a1-6)[Man(a1-3)]Man(b1-4)GlcNAc(b1-4)GlcNAc
Outline: as §1

[39] = biological target: Neu5Ac(a2-6)Gal(b1-4)GlcNAc(b1-2)[Neu5Ac(a2-6)Gal(b1-4)GlcNAc(b1-4)]Man(a1-3)[GlcNAc(b1-4)][Neu5Ac(a2-6)Gal(b1-4)GlcNAc(b1-2)[Neu5Ac(a2-6)Gal(b1-4)GlcNAc(b1-6)]Man(a1-6)]Man(b1-4)GlcNAc(b1-4)GlcNAc
Outline: as §1

[40] = biological target: Neu5Ac(a2-6)Gal(b1-4)GlcNAc(b1-2)[Neu5Ac(a2-6)Gal(b1-4)GlcNAc(b1-4)]Man(a1-3)[GlcNAc(b1-4)][Neu5Ac(a2-6)Gal(b1-4)GlcNAc(b1-4)Man(a1-6)]Man(b1-4)GlcNAc(b1-4)GlcNAc
Outline: as §1

[41] = biological target: Neu5Ac(a2-6)Gal(b1-4)GlcNAc(b1-2)[Neu5Ac(a2-6)Gal(b1-4)GlcNAc(b1-6)]Man(a1-6)[Neu5Ac(a2-6)Gal(b1-4)GlcNAc(b1-2)Man(a1-3)][GlcNAc(b1-4)]Man(b1-4)GlcNAc(b1-4)GlcNAc
Outline: as §1

[42] = biological target: Neu5Ac(a2-6)Gal(b1-4)GlcNAc(b1-3)Gal(b1-3)GlcNAc
Outline: as §1

[43] = biological target: Neu5Ac(a2-6)Gal(b1-4)GlcNAc(b1-3)Gal(b1-4)GlcNAc
Outline: as §1

[44] = biological target: Neu5Ac(a2-6)Gal(b1-4)GlcNAc(b1-3)Gal(b1-4)GlcNAc(b1-2)Man(a1-3)[Neu5Ac(a2-6)Gal(b1-4)GlcNAc(b1-3)Gal(b1-4)GlcNAc(b1-2)Man(a1-6)]GalNAc
Outline: as §1

[45] = biological target: Neu5Ac(a2-6)Gal(b1-4)GlcNAc(b1-3)Gal(b1-4)GlcNAc(b1-3)Gal(b1-4)GlcNAc
Outline: as §1

[46] = biological target: Neu5Ac(a2-6)Gal(b1-4)GlcNAc(b1-3)Gal(b1-4)GlcNAc(b1-3)Gal(b1-4)GlcNAc(b1-2)Man(a1-3)[Neu5Ac(a2-6)Gal(b1-4)GlcNAc(b1-3)Gal(b1-4)GlcNAc(b1-3)Gal(b1-4)GlcNAc(b1-2)Man(a1-6)]GalNAc
Outline: as §1

B1: SJCP3842 (Schistosoma japonicum) (protein)
chain: MFKMRIINLVNISTVLLLINLLQTKSRLVGKENGFMLTVSIYGAQLSDKMTSVPVSWTIDYEDPEKSAFKKLVTDSCDTFSEYVKSQIPKGSVDGQCTSHIFQRPGSGSGVSISLTLSFIYVDVTQPDTVALKTELEKHFANFVTIHSHKITQAQFRINQKAIVIPTGDKDAIDGSKWKIIAIIALVALAIVVIGGFIYICVK
[1]
  glycan array binding signal (z-score): -0.908
[2]
  glycan array binding signal (z-score): -0.78
[3]
  glycan array binding signal (z-score): -0.93
[4]
  glycan array binding signal (z-score): -1.01
[5]
  glycan array binding signal (z-score): 0.037
[6]
  glycan array binding signal (z-score): -1.01
[7]
  glycan array binding signal (z-score): 1.63
[8]
  glycan array binding signal (z-score): 0.531
[9]
  glycan array binding signal (z-score): -0.789
[10]
  glycan array binding signal (z-score): 2.37
[11]
  glycan array binding signal (z-score): 1.06
[12]
  glycan array binding signal (z-score): -0.822
[13]
  glycan array binding signal (z-score): 0.687
[14]
  glycan array binding signal (z-score): 0.092
[15]
  glycan array binding signal (z-score): -1.76
[16]
  glycan array binding signal (z-score): 1.51
[17]
  glycan array binding signal (z-score): 0.42
[18]
  glycan array binding signal (z-score): -0.08
[19]
  glycan array binding signal (z-score): -0.779
[20]
  glycan array binding signal (z-score): 0.014
[21]
  glycan array binding signal (z-score): -0.29
[22]
  glycan array binding signal (z-score): -0.689
[23]
  glycan array binding signal (z-score): 0.57
[24]
  glycan array binding signal (z-score): -0.376
[25]
  glycan array binding signal (z-score): -1.26
[26]
  glycan array binding signal (z-score): 0.071
[27]
  glycan array binding signal (z-score): -0.689
[28]
  glycan array binding signal (z-score): -0.673
[29]
  glycan array binding signal (z-score): -0.493
[30]
  glycan array binding signal (z-score): -0.194
[31]
  glycan array binding signal (z-score): 0.135
[32]
  glycan array binding signal (z-score): -1.16
[33]
  glycan array binding signal (z-score): 0.761
[34]
  glycan array binding signal (z-score): 1.14
[35]
  glycan array binding signal (z-score): 2.88
[36]
  glycan array binding signal (z-score): -0.274
[37]
  glycan array binding signal (z-score): -1.19
[38]
  glycan array binding signal (z-score): -0.162
[39]
  glycan array binding signal (z-score): -0.722
[40]
  glycan array binding signal (z-score): -0.518
[41]
  glycan array binding signal (z-score): -1.61
[42]
  glycan array binding signal (z-score): -1.48
[43]
  glycan array binding signal (z-score): 0.832
[44]
  glycan array binding signal (z-score): 0.678
[45]
  glycan array binding signal (z-score): 1.04
[46]
  glycan array binding signal (z-score): 4.64
